Residue numbers refer to the chain shown, from its start. Results are given in words; binding and its absence hold for the method and conditions named. Some binding calls cover weakened binding; strength is not graded here.
B1: Tau01 HMKE HuG4k (antibody, V domains shown)
VH: LVQLVESGGGLVQPGGSLKLSCAASGFTFNTYAMNWVRQASGKGLEWVARIRSKSNNYATYYAASVKGRFTISRDDSKSMAYLQMDSLKTEDTAVYYCVGGGDFWGQGTLVTVSS
VL: DIQMTQSPSSLSASVGDRVTITCRASQEISVYLGWFQQKPGKAPKRLIYGAFKLQSGVPSRFSGSRSGTEFTLTISSLQPEDFATYYCLQYVRYPWTFGGGTKVEIK
B2: Tau01 HMKP HuG4k (antibody, V domains shown)
VH: B1 VH
VL: B1 VL with F71Y
B3: Tau01 HMKO HuG4k (antibody, V domains shown)
VH: B1 VH
VL: B1 VL with F36Y, K53S, F71Y
B4: Tau01 HMKM HuG4k (antibody, V domains shown)
VH: B1 VH
VL: B1 VL with G34S, P44I, K53S, F71Y
B5: Tau01 HMKN HuG4k (antibody, V domains shown)
VH: B1 VH
VL: B1 VL with F36Y, K53T, F71Y
B6: Tau01 HMKC (antibody, V domains shown)
VH: B1 VH
VL: B1 VL with G34S, F71Y
B7: Tau01 HMKB (antibody, V domains shown)
VH: B1 VH
VL: B1 VL with G34S, P44I, K53T, T69S, F71Y
B8: Tau01 HMKL (antibody, V domains shown)
VH: B1 VH
VL: B1 VL with G34S, P44I, F71Y
B9: Tau01 HMKG (antibody, V domains shown)
VH: B1 VH
VL: B1 VL with F36Y, K53T
B10: Tau01 HMKA (antibody, V domains shown)
VH: B1 VH
VL: B1 VL with F36Y
B11: Tau01 HMKI (antibody, V domains shown)
VH: B1 VH
VL: B1 VL with F36Y, F71Y
B12: Tau01 HMKJ (antibody, V domains shown)
VH: B1 VH
VL: B1 VL with F36Y, K53S
B13: Tau01 HCKM (antibody, V domains shown)
VH: B1 VH with A49G
VL: B1 VL with G34S, P44I, K53S, F71Y

Sequences of proteins named here, by UniProt entry; tags and fusion partners are left off. A change or cut given only in a name is not applied to a line headed by its entry.
UniProt P10636: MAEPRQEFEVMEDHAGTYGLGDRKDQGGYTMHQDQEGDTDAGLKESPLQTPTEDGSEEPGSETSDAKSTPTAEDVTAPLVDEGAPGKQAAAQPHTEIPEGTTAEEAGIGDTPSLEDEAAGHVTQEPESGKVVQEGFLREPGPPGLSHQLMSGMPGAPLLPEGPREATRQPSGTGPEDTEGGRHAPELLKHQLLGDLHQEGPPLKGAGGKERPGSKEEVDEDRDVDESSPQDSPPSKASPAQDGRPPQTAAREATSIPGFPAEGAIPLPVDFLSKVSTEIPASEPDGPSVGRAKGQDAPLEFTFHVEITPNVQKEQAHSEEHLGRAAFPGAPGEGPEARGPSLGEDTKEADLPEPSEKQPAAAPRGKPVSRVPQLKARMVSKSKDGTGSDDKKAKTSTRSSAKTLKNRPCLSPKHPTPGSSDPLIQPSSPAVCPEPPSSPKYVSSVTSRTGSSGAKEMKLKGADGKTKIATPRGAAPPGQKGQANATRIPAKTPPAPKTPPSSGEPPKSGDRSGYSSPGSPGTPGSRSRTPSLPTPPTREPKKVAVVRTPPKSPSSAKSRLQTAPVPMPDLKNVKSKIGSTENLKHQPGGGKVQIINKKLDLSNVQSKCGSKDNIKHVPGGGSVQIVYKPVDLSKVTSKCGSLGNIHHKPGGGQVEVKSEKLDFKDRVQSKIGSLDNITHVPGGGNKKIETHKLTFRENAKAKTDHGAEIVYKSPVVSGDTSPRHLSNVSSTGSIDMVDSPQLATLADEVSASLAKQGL

Target: TauC3 (C-terminally truncated tau fragment ending at aspartate 421 of htau40) (human) (UniProt P10636)
Assay: ELISA, Octet, Biacore

binding, binds:
B1
B2
B3
B4
B5

Target: TauC3 (C-terminally truncated tau fragment ending at aspartate 421 of htau40) (human) (UniProt P10636)
Assay: binding ELISA, TauC3 coated

binding, binds:
B6
B7
B8
B9
B10
B11
B12

Target: TauC3 (C-terminally truncated tau fragment ending at aspartate 421 of htau40) (human) (UniProt P10636)
Assay: Biacore kinetics (Table 16)

binding, binds:
B2

Target: TauC3 (C-terminally truncated tau fragment ending at aspartate 421 of htau40) (human) (UniProt P10636)
Assay: binding ELISA and Octet screening

binding, binds:
B1
B7
B2
B3
B9
B5
B10
B11
B12

Target: TauC3 (C-terminally truncated tau fragment ending at aspartate 421 of htau40) (human) (UniProt P10636)
Assay: BLI (Octet) screening, 10 nM TauC3

binding, binds:
B13
B4

Target: TauC3 (C-terminally truncated tau fragment ending at aspartate 421 of htau40) (human) (UniProt P10636)
Assay: summary of ELISA, Octet and Biacore

binding, binds:
B1
B2
B3
B4
B5

Target: TauC3 (C-terminally truncated tau fragment ending at aspartate 421 of htau40) (human) (UniProt P10636)
Assay: binding ELISA at EC80 after 10 min heating

binding, binds:
B1
B2
B3
B5

Target: TauC3 (C-terminally truncated tau fragment ending at aspartate 421 of htau40) (human) (UniProt P10636)
Assay: binding ELISA to TauC3 after 21 days in serum

binding, binds:
B1
B2
B3
B4
B5

Target: TauC3 (C-terminally truncated tau fragment ending at aspartate 421 of htau40) (human) (UniProt P10636)
Assay: SPR (Biacore) kinetics, TauC3 amine-coupled on CM5

binding, binds:
B1
B2
B3
B5

Target: TauC3 (C-terminally truncated tau fragment ending at aspartate 421 of htau40) (human) (UniProt P10636)
Assay: SPR (Biacore) kinetics, summary sentence to Table 16

binding, binds:
B1
B2
B3
B4
B5

Target: TauC3 (C-terminally truncated tau fragment ending at aspartate 421 of htau40) (human) (UniProt P10636)
Assay: SPR (Biacore) off-rate ranking, TauC3 amine-coupled on CM5

binding, binds:
B1
B2
B3
B4
B5

Target: TauC3 (C-terminally truncated tau fragment ending at aspartate 421 of htau40) (human) (UniProt P10636)
Assay: binding ELISA on TauC3 at the EC80 concentration after 10 min heating at the temperature shown

binding, binds:
B1
B2
B3
B5

Target: TauC3 (C-terminally truncated tau fragment ending at aspartate 421 of htau40) (human) (UniProt P10636)
Assay: binding ELISA on TauC3 after 21 days at 37 C in PBS or mouse, human, cynomolgus serum, with non-incubated control

binding, binds:
B1
B2
B3
B5

Reference: US20220064272A1
